Reference: patent US11998014B1, “O-{1-[(3,5-dinitrobenzoyl)amino]propan-2-yl} (4-chlorophenyl)carbamothioate as an eco-friendly insecticidal agent against Spodoptera littoralis (boisd.)” (KING FAISAL UNIVERSITY, priority 2024, dated 2024)

Test system: Spodoptera littoralis
Assay: Insecticidal leaf dip bioassay on S. littoralis larvae (castor bean leaf discs)
Format: in vivo, Spodoptera littoralis (cotton leafworm, laboratory strain)
Conditions: after 72 hours of treatment, probit (LDP-line) slope
Method: Five concentrations (200, 100, 50, 25, 12.5 ppm) were designed for this synthetic compound and the reference fenoxycarb's compound as the dynamic ingredients based on ppm via diluting the commercial formulation.
In this experiment, the synthetic compound was tested for its insecticidal bioactivity using the industry-standard leaf dip bioassay techniques. Preparation of the compound stocks to create […], 0.1 g of compounds 2 were dissolved in five mL of Dimethyl formamide & combined with 5 mL of distilled water. Until usage, the stocks were kept in a refrigerator. The target substance test results were noted & the concentrations needed to destroy 50% (LC50) of S. littoralis larvae were calculated. The target compound was employed in five different concentrations, and 0.1% Tween 80 was employed as a surfactant. Castor bean leaf discs (nine centimeters in diameter) were dipped in the concentration under test for ten seconds, then fed to 2th and 4th larvae, which were roughly the same size and housed in glass jars (five pound). Each action carried out 3 times with ten larvae each. The mortality equalized via Abbott's formula. Calculations of mortality setback line were measurably rummage via probity analysis. Harmfulness index was strongminded via sun equations. The mortality results of larval insect were estimated through employing probit analysis through a statistics (LDP-line) equation which estimate the LC50 values with 95% fiducially limits of lower, upper confidence limit and slope.

Structure (SMILES) | Slope (2nd instar larvae) | Slope (4th instar larvae)
CCOC(=O)NCCOc1ccc(Oc2ccccc2)cc1 [fenoxycarb] | 0.298 ± 0.0808 | 0.225 ± 0.0870
CC(CNC(=O)c1cc([N+](=O)[O-])cc([N+](=O)[O-])c1)OC(=S)Nc1ccc(Cl)cc1 (stereo not shown) [Compound 2, O-{1-[(3,5-dinitrobenzoyl)amino]propan-2-yl} (4-chlorophenyl)carbamothioate] | 0.246 ± 0.0793 | 0.297 ± 0.0893
